Some of these results come from one statement about several compounds together.
Tested on: monoclonal antibody specific for methamphetamine
Assay: Microparticle agglutination immunoassay with conjugate (12) and methamphetamine antibody-coated particles, percent cross-reactivity
Format: binding
Conditions: common interfering compounds

Row | SMILES | Cross-reactivity (text summary, bound)
1 | CC(C)(N)Cc1ccccc1 [Phentermine] | less than 1%
2 | NCCc1ccc(O)cc1 [Tyramine] | less than 1%
3 | CN[C@@H](C)[C@@H](O)c1ccccc1 [d-pseudoephedrine] | less than 1%
4 | CN[C@@H](C)[C@H](O)c1ccccc1 [l-ephedrine] | less than 1%

Reference: patent publication US7732160B2, “Methamphetamine derivatives and conjugates for immunoassay” (Roche Diagnostics Operations, Inc., priority 2004, dated 2010)
